Data from PubChem BioAssay (EPA / NIEHS).
Inconclusive means that the source gave no clear call. Such entries were picked first, then a sample of the others. Potencies of inconclusive entries are doubtful fits and often do not repeat. Active and inactive are the calls of the source. How the source made its calls: active means hit-call score of the fitted dose curve at least 0.9, where 1 is the maximum; inconclusive means response in the unintended direction; inactive means score below 0.9.

Test: VALA_MIGHUV2_Bcatenin: VALA Sciences human Umbilical Vein Endothelial Cell Migration (MIGHUV) Assay, Nuclear Translocation of beta-Catenin after Recovery (AID 2284315)
Method: VALA_MIGHUV2_BCatenin is a cell-based, multiplexed assay that uses umbilical vein-derived endothelial cells (HUVEC). Measurements were taken 24 hours after chemical dosing in a 96-well plate.VALA_MIGHUV2_Bcatenin is the one of two assay components measured from the VALA_MIGHUV2 assay. It is designed to make measurements of nuclear translocation of CTNB, a form of morphology reporter, as detected with fluorescence intensity signals by HCS Fluorescent Imaging technology.Data from the assay component VALA_MIGHUV2_BCatenin was analyzed at the endpoint, VALA_MIGHUV2_BCatenin, in the positive analysis fitting direction relative to DMSO as the negative control and baseline of activity. Using a type of morphology reporter, gain-of-signal activity can be used to understand developmental effects. To generalize the intended target to other relatable targets, this assay endpoint is annotated to the neurodevelopment intended target family, where the subfamily is migration.
Cells were seeded on 384-well microplates (day-0) at a density of 9000 cells per well for detection of wound area recovery or 4000 cells per well for detection of beta-catenin (CTNB) immunoreactivity and incubated in Endothelial Cell Growth Medium (CAI, San Diego; catalog 211-500). After 24 hours of culture, the HUVEC plates were scratched using a custom scratch head with the Bravo liquid handling system. This created a 'wound' area without cells in each well. Test chemical was added within 30 min, each tested in 3-replicates across a 6-point concentration response (0.1 % DMSO vehicle control). 'ScratchOnly' Plates were incubated for a 24 h 'wound recovery' period and then fixed with 4% paraformaldehyde. Hoechst dye was used to visualize cell nuclei in the wound area, and CTNB immunofluorescence for visualizing CTNB-positive nuclei (beta-Catenin (L54E2) Mouse mAb (IF Preferred) 2677; Cell Signaling Technology, Danvers, MA). Each HUVEC plate included neutral vehicle control (0.1 % DMSO) treated wells and Cytochalasin D (actin cytoskeletal disrupter) or BIO-acetoxime (synthetic GSK3 inhibitor) as positive reference controls for endothelial migration and nuclear translocation of CTNB, respectively.

SMILES	AC50	outcome
O=C(O)Cc1cc(I)c(Oc2cc(I)c(O)c(I)c2)c(I)c1	inconclusive: 1.29 nM	–
CCCCCCCCOC(=O)c1cc(O)c(O)c(O)c1	active: 79900 nM	–
COC(=O)c1ccc(O)cc1	inconclusive: 13.1 nM	–
O=C(Nc1ccc(Cl)cc1)Nc1ccc(Cl)c(Cl)c1	inconclusive: 32.4 nM	–
CCCc1cc(=O)[nH]c(=S)[nH]1	inconclusive: 50000 nM	–
O=c1c(O)c(-c2ccc(O)c(O)c2)oc2cc(O)cc(O)c12	inconclusive: 14.1 nM	–
CC(C)CCCCCCc1ccc(O)cc1	inconclusive: 15.6 nM	–
CC(C)(c1ccc(O)cc1)c1ccc(O)cc1	–	inactive
O=P(OC(CCl)CCl)(OC(CCl)CCl)OC(CCl)CCl	inconclusive: 14.1 nM	–
Cc1ccc(-c2cc(C(F)(F)F)nn2-c2ccc(S(N)(=O)=O)cc2)cc1	inconclusive: 122 nM	–
Oc1ccc2ccccc2c1N=Nc1ccccc1	inconclusive: 48.6 nM	–
N[C@@H](Cc1cc(I)c(Oc2ccc(O)c(I)c2)c(I)c1)C(=O)O	–	inactive
